B1: TRMT2A (protein, UniProt Q8IZ69 1-625, looked up)
tRNA …: MSENLDNEGPKPMESCGQESSSALSCPTVSVPPAAPAALEEVEKEGAGAATGPGPQPGLYSYIRDDLFTSEIFKLELQNVPRHASFSDVRRFLGRFGLQPHKTKLFGQPPCAFVTFRSAAERDKALRVLHGALWKGRPLSVRLARPKADPMARRRRQEGESEPPVTRVADVVTPLWTVPYAEQLERKQLECEQVLQKLAKEIGSTNRALLPWLLEQRHKHNKACCPLEGVRPSPQQTEYRNKCEFLVGVGVDGEDNTVGCRLGKYKGGTCAVAAPFDTVHIPEATKQVVKAFQEFIRSTPYSAYDPETYTGHWKQLTVRTSRRHQAMAIAYFHPQKLSPEELAELKTSLAQHFTAGPGRASGVTCLYFVEEGQRKTPSQEGLPLEHVAGDRCIHEDLLGLTFRISPHAFFQVNTPAAEVLYTVIQDWAQLDAGSMVLDVCCGTGTIGLALARKVKRVIGVELCPEAVEDARVNAQDNELSNVEFHCGRAEDLVPTLVSRLASQHLVAILDPPRAGLHSKVILAIRRAKNLRRLLYVSCNPRAAMGNFVDLCRAPSNRVKGIPFRPVKAVAVDLFPQTPHCEMLILFERVEHPNGTGVLGPHSPPAQPTPGPPDNTLQETGTFPSS
B2: DHRS13 (protein, UniProt Q6UX07 26-377, looked up)
Dehydrogenase/reductase SDR …: PPCGGMGNLRGRTAVVTGANSGIGKMTALELARRGARVVLACRSQERGEAAAFDLRQESGNNEVIFMALDLASLASVRAFATAFLSSEPRLDILIHNAGISSCGRTREAFNLLLRVNHIGPFLLTHLLLPCLKACAPSRVVVVASAAHCRGRLDFKRLDRPVVGWRQELRAYADTKLANVLFARELANQLEATGVTCYAAHPGPVNSELFLRHVPGWLRPLLRPLAWLVLRAPRGGAQTPLYCALQEGIEPLSGRYFANCHVEEVPPAARDDRAAHRLWEASKRLAGLGPGEDAEPDEDPQSEDSEAPSSLSTPHPEEPTVSQPYPSPQSSPDLSKMTHRIQAKVEPEIQLS
B3: ZFP91 (protein, UniProt Q96JP5 2-570, looked up)
E3 ubiquitin-protein ligase …: PGETEEPRPPEQQDQEGGEAAKAAPEEPQQRPPEAVAAAPAGTTSSRVLRGGRDRGRAAAAAAAAAVSRRRKAEYPRRRRSSPSARPPDVPGQQPQAAKSPSPVQGKKSPRLLCIEKVTTDKDPKEEKEEEDDSALPQEVSIAASRPSRGWRSSRTSVSRHRDTENTRSSRSKTGSLQLICKSEPNTDQLDYDVGEEHQSPGGISSEEEEEEEEEMLISEEEIPFKDDPRDETYKPHLERETPKPRRKSGKVKEEKEKKEIKVEVEVEVKEEENEIREDEEPPRKRGRRRKDDKSPRLPKRRKKPPIQYVRCEMEGCGTVLAHPRYLQHHIKYQHLLKKKYVCPHPSCGRLFRLQKQLLRHAKHHTDQRDYICEYCARAFKSSHNLAVHRMIHTGEKPLQCEICGFTCRQKASLNWHMKKHDADSFYQFSCNICGKKFEKKDSVVAHKAKSHPEVLIAEALAANAGALITSTDILGTNPESLTQPSDGQGLPLLPEPLGNSTSGECLLLEAEGMSKSYCSGTERVSLMADGKIFVGSGSSGGTEGLVMNSDILGATTEVLIEDSDSAGP
B4: QPCTL (protein, UniProt Q9NXS2 1-382, looked up)
Glutaminyl-peptide …: MRSGGRGRPRLRLGERGLMEPLLPPKRRLLPRVRLLPLLLALAVGSAFYTIWSGWHRRTEELPLGRELRVPLIGSLPEARLRRVVGQLDPQRLWSTYLRPLLVVRTPGSPGNLQVRKFLEATLRSLTAGWHVELDPFTASTPLGPVDFGNVVATLDPRAARHLTLACHYDSKLFPPGSTPFVGATDSAVPCALLLELAQALDLELSRAKKQAAPVTLQLLFLDGEEALKEWGPKDSLYGSRHLAQLMESIPHSPGPTRIQAIELFMLLDLLGAPNPTFYSHFPRTVRWFHRLRSIEKRLHRLNLLQSHPQEVMYFQPGEPFGSVEDDHIPFLRRGVPVLHLISTPFPAVWHTPADTEVNLHPPTVHNLCRILAVFLAEYLGL
B5: NCAPD3 (protein, UniProt P42695 1-1498, looked up)
Condensin-2 complex subunit D3: MVALRGLGSGLQPWCPLDLRLEWVDTVWELDFTETEPLDPSIEAEIIETGLAAFTKLYESLLPFATGEHGSMESIWTFFIENNVSHSTLVALFYHFVQIVHKKNVSVQYREYGLHAAGLYFLLLEVPGSVANQVFHPVMFDKCIQTLKKSWPQESNLNRKRKKEQPKSSQANPGRHRKRGKPPRREDIEMDEIIEEQEDENICFSARDLSQIRNAIFHLLKNFLRLLPKFSLKEKPQCVQNCIEVFVSLTNFEPVLHECHVTQARALNQAKYIPELAYYGLYLLCSPIHGEGDKVISCVFHQMLSVILMLEVGEGSHRAPLAVTSQVINCRNQAVQFISALVDELKESIFPVVRILLQHICAKVVDKSEYRTFAAQSLVQLLSKLPCGEYAMFIAWLYKYSRSSKIPHRVFTLDVVLALLELPEREVDNTLSLEHQKFLKHKFLVQEIMFDRCLDKAPTVRSKALSSFAHCLELTVTSASESILELLINSPTFSVIESHPGTLLRNSSAFSYQRQTSNRSEPSGEINIDSSGETVGSGERCVMAMLRRRIRDEKTNVRKSALQVLVSILKHCDVSGMKEDLWILQDQCRDPAVSVRKQALQSLTELLMAQPRCVQIQKAWLRGVVPVVMDCESTVQEKALEFLDQLLLQNIRHHSHFHSGDDSQVLAWALLTLLTTESQELSRYLNKAFHIWSKKEKFSPTFINNVISHTGTEHSAPAWMLLSKIAGSSPRLDYSRIIQSWEKISSQQNPNSNTLGHILCVIGHIAKHLPKSTRDKVTDAVKCKLNGFQWSLEVISSAVDALQRLCRASAETPAEEQELLTQVCGDVLSTCEHRLSNIVLKENGTGNMDEDLLVKYIFTLGDIAQLCPARVEKRIFLLIQSVLASSADADHSPSSQGSSEAPASQPPPQVRGSVMPSVIRAHAIITLGKLCLQHEDLAKKSIPALVRELEVCEDVAVRNNVIIVMCDLCIRYTIMVDKYIPNISMCLKDSDPFIRKQTLILLTNLLQEEFVKWKGSLFFRFVSTLIDSHPDIASFGEFCLAHLLLKRNPVMFFQHFIECIFHFNNYEKHEKYNKFPQSEREKRLFSLKGKSNKERRMKIYKFLLEHFTDEQRFNITSKICLSILACFADGILPLDLDASELLSDTFEVLSSKEIKLLAMRSKPDKDLLMEEDDMALANVVMQEAQKKLISQVQKRNFIENIIPIIISLKTVLEKNKIPALRELMHYLREVMQDYRDELKDFFAVDKQLASELEYDMKKYQEQLVQEQELAKHADVAGTAGGAEVAPVAQVALCLETVPVPAGQENPAMSPAVSQPCTPRASAGHVAVSSPTPETGPLQRLLPKARPMSLSTIAILNSVKKAVESKSRHRSRSLGVLPFTLNSGSPEKTCSQVSSYSLEQESNGEIEHVTKRAISTPEKSISDVTFGAGVSYIGTPRTPSSAKEKIEGRSQGNDILCLSLPDKPPPQPQQWNVRSPARNKDTPACSRRSLRKTPLKTAN
B6: QTRT2 (protein, UniProt Q9H974 1-415, looked up)
Queuine …: MKLSLTKVVNGCRLGKIKNLGKTGDHTMDIPGCLLYTKTGSAPHLTHHTLHNIHGVPAMAQLTLSSLAEHHEVLTEYKEGVGKFIGMPESLLYCSLHDPVSPCPAGYVTNKSVSVWSVAGRVEMTVSKFMAIQKALQPDWFQCLSDGEVSCKEATSIKRVRKSVDRSLLFLDNCLRLQEESEVLQKSVIIGVIEGGDVMEERLRSARETAKRPVGGFLLDGFQGNPTTLEARLRLLSSVTAELPEDKPRLISGVSRPDEVLECIERGVDLFESFFPYQVTERGCALTFSFDYQPNPEETLLQQNGTQEEIKCMDQIKKIETTGCNQEITSFEINLKEKKYQEDFNPLVRGCSCYCCKNHTRAYIHHLLVTNELLAGVLLMMHNFEHYFGFFHYIREALKSDKLAQLKELIHRQAS
B7: DNAJC25 (protein, UniProt Q9H1X3 1-360, looked up)
DnaJ homolog subfamily C …: MGAPLLSPGWGAGAAGRRWWMLLAPLLPALLLVRPAGALVEGLYCGTRDCYEVLGVSRSAGKAEIARAYRQLARRYHPDRYRPQPGDEGPGRTPQSAEEAFLLVATAYETLKDEETRKDYDYMLDHPEEYYSHYYHYYSRRLAPKVDVRVVILVSVCAISVFQFFSWWNSYNKAISYLATVPKYRIQATEIAKQQGLLKKAKEKGKNKKSKEEIRDEEENIIKNIIKSKIDIKGGYQKPQICDLLLFQIILAPFHLCSYIVWYCRWIYNFNIKGKEYGEEERLYIIRKSMKMSKSQFDSLEDHQKETFLKRELWIKENYEVYKQEQEEELKKKLANDPRWKRYRRWMKNEGPGRLTFVDD
B8: MAP1S (protein, UniProt Q66K74 1-1059, looked up)
Microtubule-associated …: MAAVAGSGAAAAPSSLLLVVGSEFGSPGLLTYVLEELERGIRSWDVDPGVCNLDEQLKVFVSRHSATFSSIVKGQRSLHHRGDNLETLVLLNPSDKSLYDELRNLLLDPASHKLLVLAGPCLEETGELLLQTGGFSPHHFLQVLKDREIRDILATTPPPVQPPILTITCPTFGDWAQLAPAVPGLQGALRLQLRLNPPAQLPNSEGLCEFLEYVAESLEPPSPFELLEPPTSGGFLRLGRPCCYIFPGGLGDAAFFAVNGFTVLVNGGSNPKSSFWKLVRHLDRVDAVLVTHPGADSLPGLNSLLRRKLAERSEVAAGGGSWDDRLRRLISPNLGVVFFNACEAASRLARGEDEAELALSLLAQLGITPLPLSRGPVPAKPTVLFEKMGVGRLDMYVLHPPSAGAERTLASVCALLVWHPAGPGEKVVRVLFPGCTPPACLLDGLVRLQHLRFLREPVVTPQDLEGPGRAESKESVGSRDSSKREGLLATHPRPGQERPGVARKEPARAEAPRKTEKEAKTPRELKKDPKPSVSRTQPREVRRAASSVPNLKKTNAQAAPKPRKAPSTSHSGFPPVANGPRSPPSLRCGEASPPSAACGSPASQLVATPSLELGPIPAGEEKALELPLAASSIPRPRTPSPESHRSPAEGSERLSLSPLRGGEAGPDASPTVTTPTVTTPSLPAEVGSPHSTEVDESLSVSFEQVLPPSAPTSEAGLSLPLRGPRARRSASPHDVDLCLVSPCEFEHRKAVPMAPAPASPGSSNDSSARSQERAGGLGAEETPPTSVSESLPTLSDSDPVPLAPGAADSDEDTEGFGVPRHDPLPDPLKVPPPLPDPSSICMVDPEMLPPKTARQTENVSRTRKPLARPNSRAAAPKATPVAAAKTKGLAGGDRASRPLSARSEPSEKGGRAPLSRKSSTPKTATRGPSGSASSRPGVSATPPKSPVYLDLAYLPSGSSAHLVDEEFFQRVRALCYVISGQDQRKEEGMRAVLDALLASKQHWDRDLQVTLIPTFDSVAMHTWYAETHARHQALGITVLGSNSMVSMQDDAFPACKVEF
B9: PIGU (protein, UniProt Q9H490 2-435, looked up)
GPI-anchor transamidase …: AAPLVLVLVVAVTVRAALFRSSLAEFISERVEVVSPLSSWKRVVEGLSLLDLGVSPYSGAVFHETPLIIYLFHFLIDYAELVFMITDALTAIALYFAIQDFNKVVFKKQKLLLELDQYAPDVAELIRTPMEMRYIPLKVALFYLLNPYTILSCVAKSTCAINNTLIAFFILTTIKGSAFLSAIFLALATYQSLYPLTLFVPGLLYLLQRQYIPVKMKSKAFWIFSWEYAMMYVGSLVVIICLSFFLLSSWDFIPAVYGFILSVPDLTPNIGLFWYFFAEMFEHFSLFFVCVFQINVFFYTIPLAIKLKEHPIFFMFIQIAVIAIFKSYPTVGDVALYMAFFPVWNHLYRFLRNIFVLTCIIIVCSLLFPVLWHLWIYAGSANSNFFYAITLTFNVGQILLISDYFYAFLRREYYLTHGLYLTAKDGTEAMLVLK

The molecules below were run on BAF complex subunits and histone proteins (assay: Mass spectrometry proteomics of purified HA-SS18 WT and HA-SS18-SSX1 complexes (Tables 5A-5E)). Conditions: HA-SS18WT_NE_peptides: proteins co-purified with HA-SS18 WT from nuclear extract (NE), HEK-293T.
Parameters: species or system human

Total (peptides), 1:
B1
B2
B3
B4
B5
B6
B7
B8
B9

Unique (peptides), 1:
B1
B2
B3
B4
B5
B6
B7
B8
B9
